Source: US9924719B2, “Pyridazine compound” (Sumitomo Chemical Company, Limited, priority 2014, dated 2018)
Some entries share one result that the patent states for a list of compounds. For some assays here: At least one structure is not confirmed: it was looked up by name or label, or the drawing left a doubt.

Assays:
Assay type in all cases: in vivo
[1] = test system: brown planthopper (Nilaparvata lugens); test: Test Example 5: spray on rice seedling, brown planthopper, 200 ppm; conditions: 10 mL spray on rice seedling, 3rd to 4th instar larvae, after 6 days, 25° C.
[2] = test system: brown planthopper (Nilaparvata lugens); test: Test Example 6: irrigation at plant foot of rice seedling, brown planthopper, 200 ppm; conditions: 5 mL irrigation at plant foot of rice, larvae released after 7 days, counted after additional 6 days
[3] = test system: cotton aphid (Aphis gossypii); test: Test Example 3: irrigation at plant foot of cucumber seedling, cotton aphid, 200 ppm; conditions: 5 mL irrigation at plant foot of cucumber, aphids released later, 6 days after release
[4] = test system: cabbage moth (Plutella xylostella); test: Test Example 8: spray on cabbage seedling, cabbage moth larvae, 200 ppm; conditions: spray 20 mL/cup on cabbage, 2nd instar larvae, 25° C., 5 days
Protocol: (§1) Meanwhile, cabbage seedling (on the developmental stage of the third true leaf) was planted in a polyethylene cup, and each of the test chemical solution was sprayed into the cabbage seedling in a ratio of 20 mL/cup. After the test chemical solution was dried, the stem and leaf thereof was cut out and then installed into a 50 mL cup. Five (5) heads of 2nd instar larvae of cabbage moth (Plutella xylostella) were released into the cup, and the cup was covered with a lid. After the cup was stored at 25° C. for 5 days, the number of the dead insects was counted, and the mortality of insects was calculated by the following equation. Morality (%)=(1−the number of the surviving insects/the number of the test insects)×100

[5] = test system: cucurbit leaf beetle (Aulacophora femoralis); test: Test Example 11: spray on cucumber seedling, cucurbit leaf beetle larvae, 50 ppm; conditions: Formulation example 1, spray 30 mL/cup on cucumber, second instar larvae, 25° C., 5 days
Protocol: Meanwhile, cucumber seedling (on the developmental stage of the third true leaf) was planted in a polyethylene cup, and each of the test chemical solution was sprayed into the seedling in a ratio of 30 mL/cup. After the test chemical solution was dried, the second leaf thereof was cut out, and then installed into a 200 mL cup. Ten (10) heads of the second instar larvae of cucurbit leaf beetle (Aulacophora femoralis) were released into the cup, and the cup was covered with a lid. After the cup was stored at 25° C. for 5 days, the number of the dead insects was counted, and the mortality of insects was calculated by the following equation. Morality (%)−{the number of the dead insects/the number of the test isects}×100

[6] = test system: cotton aphid (Aphis gossypii); test: Test Example 2: foliar spray on cucumber seedling infested with cotton aphid, 200 ppm; conditions: spray 20 mL/seedling on cucumber, 6 days after spraying
[7] = test system: cotton aphid (Aphis gossypii); test: Test Example 1: foliar spray on cucumber seedling infested with cotton aphid, 500 ppm; conditions: spray 20 mL/seedling on cucumber, 6 days after spraying
[8] = test system: brown planthopper (Nilaparvata lugens); test: Test Example 4: spray on rice seedling, brown planthopper, 500 ppm; conditions: 10 mL spray on rice seedling, 3rd to 4th instar larvae, after 6 days, 25° C.
[9] = test system: cabbage moth (Plutella xylostella); test: Test Example 7: spray on cabbage seedling, cabbage moth larvae, 500 ppm; conditions: spray 20 mL/cup on cabbage, 2nd instar larvae, 25° C., 5 days
Protocol: as §1, with “[…]” for “surviving”

[10] = test system: Western corn rootworm (Diabrotica virgifera virgifera); test: Test Example 12: corn seedling immersion, Western corn rootworm larvae, 200 ppm; conditions: corn seedling immersed 30 seconds, second instar larvae, 25° C., 5 days

| Compound | controlling value [1] [%] | controlling value [2] [%] | controlling value [3] [%] | morality of insects [4] [%] | morality of insects [5] [%] | controlling value [6] [%] | controlling value [7] [%] | controlling value [8] [%] | morality of insects [9] [%] | morality of insects [10] [%] |
| --- | --- | --- | --- | --- | --- | --- | --- | --- | --- | --- |
| CCS(=O)(=O)c1cccnc1-c1ccc(OCC(F)(F)C(F)(F)F)[n+]([O-])n1 [N-oxide 1] | ≥ 90 | ≥ 90 | ≥ 90 | ≥ 80 | ≥ 85 | ≥ 90 |  |  |  |  |
| CCS(=O)(=O)c1ccc[n+]([O-])c1-c1ccc(OCC(F)(F)C(F)(F)F)[n+]([O-])n1 [N-oxide 2] |  |  | ≥ 90 |  | ≥ 85 | ≥ 90 | ≥ 90 |  |  |  |
| CCS(=O)(=O)c1cc(C(F)(F)F)cnc1-c1ccc(OCC(F)(F)C(F)F)[n+]([O-])n1 [N-oxide 5] |  | ≥ 90 |  | ≥ 80 | ≥ 85 | ≥ 90 | ≥ 90 | ≥ 90 | ≥ 80 |  |
| CCS(=O)(=O)c1cc(C(F)(F)F)ccc1-c1ccc(OCC(F)(F)C(F)(F)F)nn1 [Present compound 2] |  |  |  |  | ≥ 85 |  |  |  |  |  |
| CCS(=O)(=O)c1cccnc1-c1ccc(OCC(Cl)(Cl)Cl)nn1 [Present compound 4] |  | ≥ 90 |  |  |  |  |  |  |  |  |
| CCS(=O)(=O)c1cccnc1-c1ccc(OCC(F)(F)F)nn1 [Present compound 5] | ≥ 90 | ≥ 90 | ≥ 90 |  | ≥ 85 | ≥ 90 | ≥ 90 |  |  |  |
| CCS(=O)(=O)c1cccnc1-c1ccc(OCCC(F)(F)F)nn1 [Present compound 6] | ≥ 90 | ≥ 90 | ≥ 90 | ≥ 80 | ≥ 85 |  | ≥ 90 | ≥ 90 | ≥ 80 |  |
| CCS(=O)(=O)c1cccnc1-c1ccc(OCC(F)(F)C(F)F)nn1 [Present compound 8] |  | ≥ 90 | ≥ 90 |  |  |  |  | ≥ 90 |  |  |
| CCS(=O)(=O)c1cccnc1-c1ccc(OCC(F)(F)C(F)(F)F)nn1 [Present compound 9] | ≥ 90 | ≥ 90 | ≥ 90 | ≥ 80 | ≥ 85 | ≥ 90 | ≥ 90 |  | ≥ 80 |  |
| CCS(=O)(=O)c1cccnc1-c1ccc(OCCCC(F)(F)F)nn1 [Present compound 10] |  |  |  | ≥ 80 |  |  | ≥ 90 |  | ≥ 80 |  |
| CCS(=O)(=O)c1cccnc1-c1ccc(OCC(F)(F)C(F)C(F)(F)F)nn1 (centres unmarked) [Present compound 11] |  | ≥ 90 | ≥ 90 | ≥ 80 | ≥ 85 | ≥ 90 |  |  |  |  |
| CCS(=O)(=O)c1cccnc1-c1ccc(OC(C)C(F)(F)C(F)(F)F)nn1 (centres unmarked) [Present compound 14] | ≥ 90 | ≥ 90 | ≥ 90 | ≥ 80 |  | ≥ 90 | ≥ 90 | ≥ 90 | ≥ 80 |  |
| CCS(=O)(=O)c1cccnc1-c1ccc(OCC(F)F)nn1 [Present compound 15] |  | ≥ 90 |  |  | ≥ 85 |  | ≥ 90 |  | ≥ 80 |  |
| CCS(=O)(=O)c1cccnc1-c1ccc(OCCOCC(F)(F)F)nn1 [Present compound 16] |  |  |  |  | ≥ 85 |  |  |  |  |  |
| CCS(=O)(=O)c1cccnc1-c1ccc(OCC(F)(F)C(F)(F)C(F)(F)F)nn1 [Present compound 17] | ≥ 90 | ≥ 90 | ≥ 90 | ≥ 80 | ≥ 85 | ≥ 90 | ≥ 90 | ≥ 90 | ≥ 80 |  |
| CCS(=O)(=O)c1cccnc1-c1ccc(OCC(F)(F)C(F)(F)C(F)(F)C(F)(F)F)nn1 [Present compound 18] |  |  |  | ≥ 80 | ≥ 85 |  | ≥ 90 |  | ≥ 80 |  |

| Compound | controlling value [1] [%] | controlling value [2] [%] | controlling value [3] [%] | morality of insects [4] [%] | morality of insects [5] [%] | controlling value [6] [%] | controlling value [7] [%] | controlling value [8] [%] | morality of insects [9] [%] | morality of insects [10] [%] |
| --- | --- | --- | --- | --- | --- | --- | --- | --- | --- | --- |
| CCS(=O)(=O)c1cccnc1-c1ccc(OCCC(F)(F)C(F)(F)C(F)(F)C(F)(F)F)nn1 [Present compound 19] |  |  |  |  | ≥ 85 |  | ≥ 90 |  |  |  |
| CCS(=O)(=O)c1cccnc1-c1ccc(OCC(F)(F)C(F)(F)C(F)(F)C(F)(F)C(F)(F)F)nn1 [Present compound 20] |  |  |  | ≥ 80 | ≥ 85 |  |  |  | ≥ 80 |  |
| CCS(=O)(=O)c1cccnc1-c1ccc(OCCC(F)(F)C(F)(F)C(F)(C(F)(F)F)C(F)(F)F)nn1 [Present compound 21] |  |  |  |  | ≥ 85 |  |  |  | ≥ 80 |  |
| CCS(=O)(=O)c1cccnc1-c1ccc(OC(C)C(F)(F)F)nn1 (centres unmarked) [Present compound 23] | ≥ 90 | ≥ 90 |  | ≥ 80 | ≥ 85 | ≥ 90 | ≥ 90 | ≥ 90 | ≥ 80 |  |
| CCS(=O)(=O)c1cccnc1-c1ccc(OCC(C)(C(F)(F)F)C(F)(F)F)nn1 [Present compound 25] | ≥ 90 | ≥ 90 | ≥ 90 | ≥ 80 | ≥ 85 | ≥ 90 | ≥ 90 | ≥ 90 | ≥ 80 |  |
| CCC(Oc1ccc(-c2ncccc2S(=O)(=O)CC)nn1)C(F)(F)F (centres unmarked) [Present compound 26] |  |  |  | ≥ 80 |  |  | ≥ 90 | ≥ 90 | ≥ 80 |  |
| CCSc1cccnc1-c1ccc(OCC(F)(F)C(F)(F)F)nn1 [Present compound 27] |  |  |  |  |  |  |  | ≥ 90 |  |  |
| CCS(=O)(=O)c1cc(C(F)(F)F)cnc1-c1ccc(OCC(F)(F)C(F)(F)F)nn1 [Present compound 28] |  | ≥ 90 |  |  |  |  |  |  |  |  |
| CC[S+]([O-])c1cccnc1-c1ccc(OCC(F)(F)C(F)(F)F)nn1 (centres unmarked) [Present compound 29] |  |  | ≥ 90 |  |  |  |  | ≥ 90 |  |  |
| CCS(=O)(=O)c1cc(C(F)(F)F)cnc1-c1ccc(OCC(F)(F)C(F)F)nn1 [Present compound 31] | ≥ 90 | ≥ 90 | ≥ 90 | ≥ 80 | ≥ 85 | ≥ 90 | ≥ 90 | ≥ 90 | ≥ 80 |  |
| CCS(=O)(=O)c1cc(C(F)(F)F)cnc1-c1ccc(OCC(F)(F)C(F)C(F)(F)F)nn1 (centres unmarked) [Present compound 32] |  |  |  | ≥ 80 |  | ≥ 90 | ≥ 90 | ≥ 90 | ≥ 80 |  |
| CCS(=O)(=O)c1cccnc1-c1cc(C(F)(F)F)c(OCC(F)(F)C(F)F)nn1 [Present compound 33] |  |  |  |  |  |  |  |  |  | ≥ 80 |
| CCS(=O)(=O)c1cccnc1-c1cc(C)c(OCC(F)(F)C(F)F)nn1 [Present compound 35] |  | ≥ 90 | ≥ 90 |  |  |  |  | ≥ 90 |  |  |
| CCS(=O)(=O)c1cccnc1-c1cc(C)c(OCC(F)(F)C(F)(F)F)nn1 [Present compound 36] |  | ≥ 90 | ≥ 90 |  |  |  |  | ≥ 90 |  |  |
| CC[S+]([O-])c1cccnc1-c1cc(C)c(OCC(F)(F)C(F)F)nn1 (centres unmarked) [Present compound 37] |  | ≥ 90 | ≥ 90 |  |  |  |  | ≥ 90 |  |  |
